Experimental data published in patent US20190352404A1.
No constants are given. Whether binding was seen depends on the method and setting. Some results given as binding are weak or reduced against the parent protein; the word gives no strength.

Sequences of proteins named here, by UniProt entry; tags and fusion partners are left off. A change or cut given only in a name is not applied to a line headed by its entry.
UniProt Q9NZQ7: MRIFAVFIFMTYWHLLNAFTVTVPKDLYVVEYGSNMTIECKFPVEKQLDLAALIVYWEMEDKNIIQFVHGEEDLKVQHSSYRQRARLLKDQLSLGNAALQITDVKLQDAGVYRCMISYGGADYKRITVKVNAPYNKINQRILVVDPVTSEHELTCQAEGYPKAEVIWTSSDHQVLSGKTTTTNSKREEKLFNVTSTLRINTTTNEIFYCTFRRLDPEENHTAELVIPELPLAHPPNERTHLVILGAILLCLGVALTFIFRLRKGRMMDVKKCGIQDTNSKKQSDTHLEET

Key:
hPD-L1-Fc (human) [1] = biological target: hPD-L1-Fc (human) (UniProt Q9NZQ7); assay: BLI, hPD-L1-Fc on AHC sensor
hPD-L1-Fc (human) [2] = biological target: hPD-L1-Fc (human) (UniProt Q9NZQ7); assay: BLI
hPD-L1-Fc (human) [3] = biological target: hPD-L1-Fc (human) (UniProt Q9NZQ7); assay: BLI (FIG. 8)
hPD-L1-Fc (human) [4] = biological target: hPD-L1-Fc (human) (UniProt Q9NZQ7); assay: BLI, hPD-L1-Fc on AHC sensor, chimera at high and low concentrations
hPD-L1-Fc (human) [5] = biological target: hPD-L1-Fc (human) (UniProt Q9NZQ7); assay: BLI (ForteBio Octet), hPD-L1-Fc immobilised on AHC sensor, m7 in solution at two concentrations not printed on the sheet

binding (hPD-L1-Fc (human) [1]) | binding (hPD-L1-Fc (human) [2]) | binding (hPD-L1-Fc (human) [3]) | binding (hPD-L1-Fc (human) [4]) | binding (hPD-L1-Fc (human) [5]) | Binder
binds | – | – | – | – | KN035 sdAb mutant 1 (VHH, not shown: small tags and cut ends) VHH: QVQLQESGGGSVQAGGSLRLSCAASGKMSSRRCMGWFRQAPGKERVGVAAIDSDGTTKYADSMKGRFTISKDNAKNTLDLQMNSLKPEDTAMYYCVADSFEDPTCTLVTSSGAFQYRGQGTQVTVSS
binds | – | – | – | – | KN035 sdAb mutant 2 (VHH, not shown: small tags and cut ends) VHH: QVQLQESGGGSVQAGGSLRLSCAASGKMSSRRCMGWFRQAPGKQRVGVATIDSDGTTRYVDSVKGRFTISKDNAKNTLDLQMNSLKPEDTAMYYCAADSFEDPTCTLVTSSGAFQYRGQGTQVTVSS
– | binds | binds | binds | binds | chimeric sdAb m7 (VHH, not shown: small tags and cut ends) VHH: QVQLQESGGGSVQAGGSLRLSCAASRYTASSNCMAWFRQAPGKEREGVATIYNGGGSTAYADSVKGRFTISQDNAKNTVYLQMNSLKPEDTAMYYCGAGSPRFCASDSFEDPTCTLVTSSGAFQYWGQGTQVTVSS
